Data published in article PMC10570038.
No constants are given. Whether binding was seen depends on the method and setting. In cells and extracts the contact can be indirect.

Sequences of proteins named here, by UniProt entry; tags and fusion partners are left off.
UniProt P26599: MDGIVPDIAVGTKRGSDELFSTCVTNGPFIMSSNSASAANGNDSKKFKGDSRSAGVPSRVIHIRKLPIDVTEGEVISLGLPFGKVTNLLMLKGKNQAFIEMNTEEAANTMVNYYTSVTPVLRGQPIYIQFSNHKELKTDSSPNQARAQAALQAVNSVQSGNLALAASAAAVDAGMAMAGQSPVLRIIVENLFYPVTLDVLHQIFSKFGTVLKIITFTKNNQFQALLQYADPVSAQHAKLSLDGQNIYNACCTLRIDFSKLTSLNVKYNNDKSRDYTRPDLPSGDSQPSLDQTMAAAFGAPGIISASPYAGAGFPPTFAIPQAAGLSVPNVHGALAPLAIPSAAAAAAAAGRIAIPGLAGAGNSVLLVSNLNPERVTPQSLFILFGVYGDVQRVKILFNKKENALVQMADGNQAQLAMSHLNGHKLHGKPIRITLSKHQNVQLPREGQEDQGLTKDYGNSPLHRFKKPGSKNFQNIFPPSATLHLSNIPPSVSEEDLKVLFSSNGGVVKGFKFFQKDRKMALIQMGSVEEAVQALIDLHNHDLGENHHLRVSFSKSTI

Target: StrepII-His6-RBPMS-A (full length) (rat)
Assay: pull-down; 2 μM StrepII-His6-RBPMS variant in 60% HeLa NE, 2.2 mM MgCl2, 2.6% PVA, 30°C 15 min; MagStrep 'type3' XT beads; six washes with 150 mM KCl buffer; elution with biotin; immunoblot; only the target purified

## PTBP1 (from UniProt P26599 1-557)
  binding: no binding (tested: 2 μM StrepII-His6-RBPMS)
